# Measurements reported in the supplement of paper PMC6411743.
# By UniProt entry, the sequences of proteins in these tests, tags left out. Where a name states a change or a piece, a line headed by the entry shows the natural chain unless it says otherwise.
# UniProt O75935, whole entry: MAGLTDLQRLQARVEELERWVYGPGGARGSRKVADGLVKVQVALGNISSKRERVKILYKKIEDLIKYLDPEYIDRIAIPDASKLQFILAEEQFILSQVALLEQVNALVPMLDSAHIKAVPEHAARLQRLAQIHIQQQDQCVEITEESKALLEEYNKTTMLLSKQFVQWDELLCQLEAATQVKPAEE
# UniProt O75607: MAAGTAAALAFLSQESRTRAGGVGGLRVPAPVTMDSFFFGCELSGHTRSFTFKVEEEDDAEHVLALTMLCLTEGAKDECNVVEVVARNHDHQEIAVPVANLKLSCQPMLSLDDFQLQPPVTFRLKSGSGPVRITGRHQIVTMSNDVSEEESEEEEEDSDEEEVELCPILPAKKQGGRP
# UniProt O75947: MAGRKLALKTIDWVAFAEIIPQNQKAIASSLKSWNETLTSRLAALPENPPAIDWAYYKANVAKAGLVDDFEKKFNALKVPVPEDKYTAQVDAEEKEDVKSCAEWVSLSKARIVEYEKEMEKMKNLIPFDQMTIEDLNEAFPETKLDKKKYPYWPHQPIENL
# UniProt O75882: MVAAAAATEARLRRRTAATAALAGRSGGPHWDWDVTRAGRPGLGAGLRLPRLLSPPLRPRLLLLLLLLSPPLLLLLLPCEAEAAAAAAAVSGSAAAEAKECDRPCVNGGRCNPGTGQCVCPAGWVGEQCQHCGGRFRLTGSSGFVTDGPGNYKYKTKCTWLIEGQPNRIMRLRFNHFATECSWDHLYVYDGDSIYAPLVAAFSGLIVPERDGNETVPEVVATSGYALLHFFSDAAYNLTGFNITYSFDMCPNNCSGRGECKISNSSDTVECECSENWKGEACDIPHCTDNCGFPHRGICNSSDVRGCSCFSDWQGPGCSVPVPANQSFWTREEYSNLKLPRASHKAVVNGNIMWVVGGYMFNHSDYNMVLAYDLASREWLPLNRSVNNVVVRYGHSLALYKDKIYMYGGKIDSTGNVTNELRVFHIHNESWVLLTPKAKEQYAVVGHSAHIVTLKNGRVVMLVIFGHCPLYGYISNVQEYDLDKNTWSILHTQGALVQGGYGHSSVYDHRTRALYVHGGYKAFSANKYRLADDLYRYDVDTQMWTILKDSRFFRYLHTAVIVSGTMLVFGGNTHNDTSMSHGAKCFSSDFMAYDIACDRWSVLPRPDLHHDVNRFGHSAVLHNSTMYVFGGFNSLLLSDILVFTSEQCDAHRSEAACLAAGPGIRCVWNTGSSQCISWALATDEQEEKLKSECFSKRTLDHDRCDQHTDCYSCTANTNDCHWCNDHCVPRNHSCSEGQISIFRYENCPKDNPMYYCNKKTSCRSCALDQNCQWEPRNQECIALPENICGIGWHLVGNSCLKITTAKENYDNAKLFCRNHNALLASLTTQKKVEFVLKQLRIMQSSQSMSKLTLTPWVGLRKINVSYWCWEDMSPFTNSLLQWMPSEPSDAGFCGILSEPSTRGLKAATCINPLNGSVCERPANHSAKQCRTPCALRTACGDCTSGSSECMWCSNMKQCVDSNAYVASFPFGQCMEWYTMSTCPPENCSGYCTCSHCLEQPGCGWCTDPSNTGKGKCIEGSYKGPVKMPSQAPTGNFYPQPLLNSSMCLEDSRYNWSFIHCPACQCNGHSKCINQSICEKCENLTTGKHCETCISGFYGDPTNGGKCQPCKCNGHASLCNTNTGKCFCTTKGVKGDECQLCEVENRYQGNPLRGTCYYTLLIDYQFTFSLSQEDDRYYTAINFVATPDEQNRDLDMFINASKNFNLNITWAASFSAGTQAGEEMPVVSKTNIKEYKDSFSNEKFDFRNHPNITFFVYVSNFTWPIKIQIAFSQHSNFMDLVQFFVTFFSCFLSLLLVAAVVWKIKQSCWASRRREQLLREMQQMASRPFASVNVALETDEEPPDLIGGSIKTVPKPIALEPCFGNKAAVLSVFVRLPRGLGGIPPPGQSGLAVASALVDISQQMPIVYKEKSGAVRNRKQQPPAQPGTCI
# UniProt O95202: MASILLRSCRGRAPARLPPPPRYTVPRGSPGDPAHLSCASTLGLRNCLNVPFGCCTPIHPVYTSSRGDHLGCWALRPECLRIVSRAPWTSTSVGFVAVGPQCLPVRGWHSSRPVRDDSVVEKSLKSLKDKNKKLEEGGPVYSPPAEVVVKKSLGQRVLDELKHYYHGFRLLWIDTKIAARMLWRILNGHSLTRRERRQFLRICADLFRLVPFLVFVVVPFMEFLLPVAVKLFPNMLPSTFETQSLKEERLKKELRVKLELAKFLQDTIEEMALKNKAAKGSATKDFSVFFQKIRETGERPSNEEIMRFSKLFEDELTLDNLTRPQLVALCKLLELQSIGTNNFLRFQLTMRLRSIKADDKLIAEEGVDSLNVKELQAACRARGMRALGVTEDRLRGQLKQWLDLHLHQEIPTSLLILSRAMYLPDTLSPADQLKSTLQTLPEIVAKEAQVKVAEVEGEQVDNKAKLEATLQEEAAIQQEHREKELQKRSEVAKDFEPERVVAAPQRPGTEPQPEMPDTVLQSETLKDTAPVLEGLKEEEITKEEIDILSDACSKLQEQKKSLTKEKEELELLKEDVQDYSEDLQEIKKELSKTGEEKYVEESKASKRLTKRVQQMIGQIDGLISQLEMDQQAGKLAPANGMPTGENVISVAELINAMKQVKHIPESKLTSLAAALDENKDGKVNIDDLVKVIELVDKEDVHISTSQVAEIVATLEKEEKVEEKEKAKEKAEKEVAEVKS
# UniProt O94886: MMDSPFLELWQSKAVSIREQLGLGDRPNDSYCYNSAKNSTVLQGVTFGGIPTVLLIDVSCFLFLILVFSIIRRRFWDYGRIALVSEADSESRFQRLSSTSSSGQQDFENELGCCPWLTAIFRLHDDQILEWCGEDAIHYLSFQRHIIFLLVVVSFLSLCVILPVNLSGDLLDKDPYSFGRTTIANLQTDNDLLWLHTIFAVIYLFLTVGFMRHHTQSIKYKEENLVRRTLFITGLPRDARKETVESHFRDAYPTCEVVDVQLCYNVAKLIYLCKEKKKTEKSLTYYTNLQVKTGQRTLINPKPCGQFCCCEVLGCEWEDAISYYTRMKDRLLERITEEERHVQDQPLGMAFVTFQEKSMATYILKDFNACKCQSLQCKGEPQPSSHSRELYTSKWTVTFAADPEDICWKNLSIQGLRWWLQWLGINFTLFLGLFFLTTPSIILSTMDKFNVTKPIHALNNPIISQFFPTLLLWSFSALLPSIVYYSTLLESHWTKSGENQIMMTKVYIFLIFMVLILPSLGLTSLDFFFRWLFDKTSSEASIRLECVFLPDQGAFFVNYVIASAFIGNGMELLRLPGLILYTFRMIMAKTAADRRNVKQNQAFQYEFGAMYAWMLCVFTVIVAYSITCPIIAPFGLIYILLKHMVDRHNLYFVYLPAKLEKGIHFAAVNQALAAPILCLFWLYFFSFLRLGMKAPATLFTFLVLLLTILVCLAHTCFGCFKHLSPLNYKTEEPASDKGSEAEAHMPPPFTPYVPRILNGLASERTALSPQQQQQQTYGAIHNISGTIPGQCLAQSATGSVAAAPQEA
# UniProt O94817, whole entry: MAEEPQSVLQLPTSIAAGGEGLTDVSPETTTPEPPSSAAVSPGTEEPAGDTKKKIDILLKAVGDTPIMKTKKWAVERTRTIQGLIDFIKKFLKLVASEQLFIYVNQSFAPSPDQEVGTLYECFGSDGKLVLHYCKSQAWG
# UniProt O95167, whole entry: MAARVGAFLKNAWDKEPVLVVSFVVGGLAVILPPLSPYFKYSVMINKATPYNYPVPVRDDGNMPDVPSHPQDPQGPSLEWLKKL
# UniProt O75071: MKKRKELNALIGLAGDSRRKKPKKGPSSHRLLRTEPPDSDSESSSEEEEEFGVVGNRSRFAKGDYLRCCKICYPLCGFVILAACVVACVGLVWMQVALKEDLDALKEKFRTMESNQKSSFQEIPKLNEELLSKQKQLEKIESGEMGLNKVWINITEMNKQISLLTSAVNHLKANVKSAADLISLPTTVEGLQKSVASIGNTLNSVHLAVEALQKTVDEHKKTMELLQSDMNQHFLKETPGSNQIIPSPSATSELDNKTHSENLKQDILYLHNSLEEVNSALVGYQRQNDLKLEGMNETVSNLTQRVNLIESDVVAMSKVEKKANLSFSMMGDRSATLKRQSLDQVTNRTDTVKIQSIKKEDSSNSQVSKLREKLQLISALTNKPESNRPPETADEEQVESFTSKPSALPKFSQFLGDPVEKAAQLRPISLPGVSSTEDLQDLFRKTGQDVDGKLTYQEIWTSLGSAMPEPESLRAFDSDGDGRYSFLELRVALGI
# UniProt O75093: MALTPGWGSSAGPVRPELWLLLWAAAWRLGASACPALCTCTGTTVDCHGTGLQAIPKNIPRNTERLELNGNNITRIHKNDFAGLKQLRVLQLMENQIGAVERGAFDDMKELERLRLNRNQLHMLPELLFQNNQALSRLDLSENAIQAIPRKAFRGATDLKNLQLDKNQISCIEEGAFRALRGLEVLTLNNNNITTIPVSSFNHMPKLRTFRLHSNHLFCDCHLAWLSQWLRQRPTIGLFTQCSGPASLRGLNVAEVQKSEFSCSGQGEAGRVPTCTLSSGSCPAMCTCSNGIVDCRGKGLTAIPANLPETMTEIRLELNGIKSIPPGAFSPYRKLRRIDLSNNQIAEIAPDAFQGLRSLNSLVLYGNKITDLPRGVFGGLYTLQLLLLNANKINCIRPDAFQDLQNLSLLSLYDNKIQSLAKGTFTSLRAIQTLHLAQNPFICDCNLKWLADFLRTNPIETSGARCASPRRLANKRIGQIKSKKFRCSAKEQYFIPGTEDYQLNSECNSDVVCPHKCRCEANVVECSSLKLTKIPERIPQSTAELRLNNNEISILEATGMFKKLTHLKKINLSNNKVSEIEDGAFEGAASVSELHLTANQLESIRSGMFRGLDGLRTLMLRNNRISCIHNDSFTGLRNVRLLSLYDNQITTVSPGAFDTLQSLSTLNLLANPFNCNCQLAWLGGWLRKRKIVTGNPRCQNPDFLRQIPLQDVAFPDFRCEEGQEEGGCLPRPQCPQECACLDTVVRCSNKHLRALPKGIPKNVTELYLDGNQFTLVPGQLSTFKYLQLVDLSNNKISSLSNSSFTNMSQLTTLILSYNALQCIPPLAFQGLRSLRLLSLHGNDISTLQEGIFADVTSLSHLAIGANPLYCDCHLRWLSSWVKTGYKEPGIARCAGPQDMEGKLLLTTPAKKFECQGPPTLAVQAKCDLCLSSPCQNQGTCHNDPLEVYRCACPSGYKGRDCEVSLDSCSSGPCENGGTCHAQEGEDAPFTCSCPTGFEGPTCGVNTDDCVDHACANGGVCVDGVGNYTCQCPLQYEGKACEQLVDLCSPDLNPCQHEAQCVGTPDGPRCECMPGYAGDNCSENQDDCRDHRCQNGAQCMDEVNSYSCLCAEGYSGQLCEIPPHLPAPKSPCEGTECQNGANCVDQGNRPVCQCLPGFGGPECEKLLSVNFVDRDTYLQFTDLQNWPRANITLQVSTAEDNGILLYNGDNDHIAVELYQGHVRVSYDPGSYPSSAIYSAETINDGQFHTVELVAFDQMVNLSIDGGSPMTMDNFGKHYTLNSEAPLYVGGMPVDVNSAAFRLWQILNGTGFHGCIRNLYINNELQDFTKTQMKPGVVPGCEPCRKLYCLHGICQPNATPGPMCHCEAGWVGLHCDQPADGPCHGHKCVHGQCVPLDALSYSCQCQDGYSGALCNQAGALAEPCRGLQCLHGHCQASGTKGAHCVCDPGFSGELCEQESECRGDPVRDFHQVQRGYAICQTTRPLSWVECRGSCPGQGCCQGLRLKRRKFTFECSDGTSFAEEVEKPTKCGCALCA
# UniProt O75475: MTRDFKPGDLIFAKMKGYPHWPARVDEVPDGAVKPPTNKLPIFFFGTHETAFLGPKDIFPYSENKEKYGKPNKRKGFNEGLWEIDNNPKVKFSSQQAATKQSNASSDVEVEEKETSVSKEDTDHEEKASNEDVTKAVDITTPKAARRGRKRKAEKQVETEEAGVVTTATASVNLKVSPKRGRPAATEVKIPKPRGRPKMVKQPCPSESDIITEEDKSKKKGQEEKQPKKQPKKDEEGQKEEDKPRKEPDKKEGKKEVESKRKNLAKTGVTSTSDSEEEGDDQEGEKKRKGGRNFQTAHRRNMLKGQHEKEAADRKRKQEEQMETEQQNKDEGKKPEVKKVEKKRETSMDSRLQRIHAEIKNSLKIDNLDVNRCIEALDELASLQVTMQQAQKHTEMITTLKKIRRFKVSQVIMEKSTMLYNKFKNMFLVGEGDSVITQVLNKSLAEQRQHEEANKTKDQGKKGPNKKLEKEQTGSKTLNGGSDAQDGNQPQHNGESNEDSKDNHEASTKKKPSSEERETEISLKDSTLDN
# UniProt O60930: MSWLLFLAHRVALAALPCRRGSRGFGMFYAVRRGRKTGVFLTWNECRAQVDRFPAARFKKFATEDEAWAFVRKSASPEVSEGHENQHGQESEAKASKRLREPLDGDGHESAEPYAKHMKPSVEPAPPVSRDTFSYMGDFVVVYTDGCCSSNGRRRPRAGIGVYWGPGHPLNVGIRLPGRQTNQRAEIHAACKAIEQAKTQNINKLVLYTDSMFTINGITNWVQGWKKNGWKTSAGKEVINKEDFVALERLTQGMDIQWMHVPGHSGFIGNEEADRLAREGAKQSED
# ± gives the standard deviation of the averaged measurements. This is a selection; strong and weak results do not stand in their true shares.
# Compound: Nc1ncnc2c1ncn2[C@@H]1O[C@H](COP(=O)(O)OP(=O)(O)NP(=O)(O)O)[C@@H](O)[C@H]1O [adenylyl imidodiphosphate]
# Assay: NP40-soluble protein abundance relative to vehicle (solubility fold change) (ratio); higher = more soluble protein in presence of AMP-PNP
# Method in brief: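 Eight concentrations, 0.1 to 10 mM, were tested on Jurkat crude lysate for 10 min at room temperature and then 3 min at 37 °C, in three independent experiments. The lysate was solubilised with 0.8% NP40 and benzonase, ultracentrifuged, and the supernatant TMT-labelled for LC-MS/MS. Each value is the fold change against the detergent-processed vehicle in its own replicate, from vsn-normalised intensities.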
Target,NP40-soluble protein abundance (concentration: 1mM),NP40-soluble protein abundance (concentration: 2mM),NP40-soluble protein abundance (concentration: 4mM),NP40-soluble protein abundance (concentration: 6mM),NP40-soluble protein abundance (concentration: 8mM),NP40-soluble protein abundance (concentration: 10mM)
SNRNP200 (UniProt O75643),0.979 ± 0.017,0.911 ± 0.12,0.982 ± 0.071,1.01 ± 0.063,1.06 ± 0.085,1.04 ± 0.13
DNAJC8 (UniProt O75937),1.01 ± 0.12,1.14 ± 0.12,1.03 ± 0.14,1.03 ± 0.062,1.07 ± 0.056,1.01 ± 0.14
UniProt O75935 and related entries,0.932 ± 0.1,0.942 ± 0.076,0.898 ± 0.091,0.929 ± 0.095,0.976 ± 0.11,0.909 ± 0.11
UniProt O94768,1.07 ± 0.033,1.02 ± 0.091,1.04 ± 0.033,1.07 ± 0.034,1.08 ± 0.035,1.04 ± 0.049
MCM3AP (UniProt O60318),0.987 ± 0.055,0.995 ± 0.016,1.01 ± 0.028,1.02 ± 0.028,0.9948 ± 0.0076,1.06 ± 0.019
NPM3 (UniProt O75607),0.996 ± 0.027,0.997 ± 0.045,1.03 ± 0.021,1.02 ± 0.034,1.02 ± 0.05,1.04 ± 0.028
UniProt O60502,0.981 ± 0.015,0.956 ± 0.04,0.972 ± 0.023,0.926 ± 0.023,0.917 ± 0.016,0.915 ± 0.0093
UniProt O60293 and related entries,1.04 ± 0.05,1.09 ± 0.045,1.1 ± 0.014,1.1 ± 0.068,1.06 ± 0.065,1.14 ± 0.053
UniProt O76054 and related entries,0.985 ± 0.028,1.01 ± 0.036,1.01 ± 0.02,1.02 ± 0.047,1.02 ± 0.035,1.06 ± 0.059
UniProt O60341,0.957 ± 0.026,0.924 ± 0.062,0.984 ± 0.052,1.04 ± 0.03,1.04 ± 0.03,1.04 ± 0.049
UniProt O75947,0.95 ± 0.042,0.963 ± 0.032,0.869 ± 0.021,0.87 ± 0.066,0.838 ± 0.064,0.834 ± 0.056
AGFG2 (UniProt O95081),0.987 ± 0.022,1.01 ± 0.025,0.986 ± 0.033,1.04 ± 0.028,0.986 ± 0.027,1 ± 0.02
UniProt O95155 and related entries,0.992 ± 0.021,0.9829 ± 0.005,0.998 ± 0.019,0.985 ± 0.016,0.968 ± 0.02,0.986 ± 0.032
UniProt O95197 and related entries,0.983 ± 0.035,1 ± 0.1,1.01 ± 0.057,0.985 ± 0.099,0.969 ± 0.15,0.988 ± 0.15
ATRN (UniProt O75882),0.99 ± 0.016,1.04 ± 0.052,1.03 ± 0.025,0.994 ± 0.032,1.01 ± 0.013,0.9981 ± 0.0063
UniProt O75367 and related entries,1.01 ± 0.066,1 ± 0.055,1.05 ± 0.075,1.15 ± 0.034,1.26 ± 0.092,1.44 ± 0.049
IPO13 (UniProt O94829),0.976 ± 0.016,0.977 ± 0.04,0.9573 ± 0.009,0.994 ± 0.046,0.965 ± 0.03,0.935 ± 0.015
N4BP1 (UniProt O75113),1.01 ± 0.014,1.02 ± 0.039,1.02 ± 0.032,0.979 ± 0.027,0.96 ± 0.012,0.954 ± 0.028
LETM1 (UniProt O95202),1.02 ± 0.017,1.08 ± 0.077,1.02 ± 0.036,1.011 ± 0.0039,0.989 ± 0.011,0.994 ± 0.04
NUP155 (UniProt O75694),0.983 ± 0.046,0.919 ± 0.062,1 ± 0.025,0.98 ± 0.039,1.01 ± 0.035,1 ± 0.023

Target,NP40-soluble protein abundance (concentration: 1mM),NP40-soluble protein abundance (concentration: 2mM),NP40-soluble protein abundance (concentration: 4mM),NP40-soluble protein abundance (concentration: 6mM),NP40-soluble protein abundance (concentration: 8mM),NP40-soluble protein abundance (concentration: 10mM)
UniProt O94927,0.978 ± 0.031,0.9803 ± 0.00099,0.979 ± 0.013,1.03 ± 0.032,1.02 ± 0.018,1.01 ± 0.024
WFS1 (UniProt O76024),1.03 ± 0.017,1.037 ± 0.0083,1 ± 0.011,0.991 ± 0.03,0.982 ± 0.037,1 ± 0.011
UniProt O95628-10|O95628-4|O95628-8|O95628-9|O95628 and related entries,1.02 ± 0.024,1.01 ± 0.065,0.986 ± 0.016,1.03 ± 0.015,1 ± 0.015,0.985 ± 0.027
UniProt O60271 and related entries,1.04 ± 0.012,1.09 ± 0.038,1.04 ± 0.035,1.02 ± 0.023,0.977 ± 0.012,1.02 ± 0.041
MAFK (UniProt O60675),0.97 ± 0.037,1.01 ± 0.06,0.978 ± 0.036,1.01 ± 0.046,0.993 ± 0.025,1.02 ± 0.036
TMEM63A (UniProt O94886),1.03 ± 0.058,1.08 ± 0.046,1.03 ± 0.056,0.987 ± 0.034,0.962 ± 0.049,1.02 ± 0.05
ATG12 (UniProt O94817),0.962 ± 0.053,1.01 ± 0.061,0.976 ± 0.022,0.99 ± 0.041,0.975 ± 0.028,1.02 ± 0.025
UniProt O95167 and related entries,1.01 ± 0.018,1.03 ± 0.022,1.01 ± 0.016,0.9975 ± 0.0035,0.99 ± 0.013,1.027 ± 0.0014
CLPX (UniProt O76031),0.957 ± 0.062,0.969 ± 0.062,0.955 ± 0.074,0.909 ± 0.08,0.886 ± 0.074,0.923 ± 0.078
UniProt O75071,1.004 ± 0.0012,1.07 ± 0.079,1 ± 0.014,0.997 ± 0.022,0.994 ± 0.017,0.976 ± 0.035
KPNA6 (UniProt O60684),1.01 ± 0.014,0.984 ± 0.019,1.011 ± 0.0049,0.9915 ± 0.0065,1.01 ± 0.012,0.972 ± 0.021
POLR1A (UniProt O95602),1 ± 0.017,1 ± 0.086,1.07 ± 0.1,1.08 ± 0.12,1.07 ± 0.14,1.11 ± 0.14
UniProt O75592 and related entries,0.993 ± 0.014,0.997 ± 0.037,1 ± 0.028,0.994 ± 0.033,0.996 ± 0.019,1.02 ± 0.017
UniProt O75909 and related entries,1.01 ± 0.024,1.08 ± 0.042,1.06 ± 0.04,1.04 ± 0.024,1.04 ± 0.047,1.06 ± 0.018
HIP1R (UniProt O75146),1.06 ± 0.019,1.11 ± 0.037,1.11 ± 0.022,1.11 ± 0.038,1.11 ± 0.044,1.18 ± 0.033
UniProt O75093 and related entries,1.01 ± 0.035,1.011 ± 0.0054,1.04 ± 0.048,1.07 ± 0.035,1.08 ± 0.035,1.13 ± 0.059
BRD4 (UniProt O60885),1.03 ± 0.033,1.14 ± 0.059,1.09 ± 0.015,1.1 ± 0.055,1.07 ± 0.038,1.123 ± 0.0069
WDHD1 (UniProt O75717),1.01 ± 0.021,0.996 ± 0.012,0.99 ± 0.015,0.963 ± 0.036,0.953 ± 0.016,0.937 ± 0.014
GLRX3 (UniProt O76003),1.04 ± 0.026,1.02 ± 0.011,0.99 ± 0.027,0.9932 ± 0.0036,0.989 ± 0.031,0.976 ± 0.055
SRP72 (UniProt O76094),0.999 ± 0.057,1.04 ± 0.1,1.05 ± 0.08,1.16 ± 0.074,1.16 ± 0.057,1.25 ± 0.13

# No new results follow: an excerpt of the list.
Target,NP40-soluble protein abundance (concentration: 1mM),NP40-soluble protein abundance (concentration: 2mM),NP40-soluble protein abundance (concentration: 4mM),NP40-soluble protein abundance (concentration: 6mM),NP40-soluble protein abundance (concentration: 8mM),NP40-soluble protein abundance (concentration: 10mM)
WFS1 (UniProt O76024),1.03 ± 0.017,1.037 ± 0.0083,1 ± 0.011,0.991 ± 0.03,0.982 ± 0.037,1 ± 0.011
UniProt O95628-10|O95628-4|O95628-8|O95628-9|O95628 and related entries,1.02 ± 0.024,1.01 ± 0.065,0.986 ± 0.016,1.03 ± 0.015,1 ± 0.015,0.985 ± 0.027

# More results follow:

Target,NP40-soluble protein abundance (concentration: 1mM),NP40-soluble protein abundance (concentration: 2mM),NP40-soluble protein abundance (concentration: 4mM),NP40-soluble protein abundance (concentration: 6mM),NP40-soluble protein abundance (concentration: 8mM),NP40-soluble protein abundance (concentration: 10mM)
PLOD3 (UniProt O60568),0.974 ± 0.043,0.979 ± 0.071,1 ± 0.025,1.01 ± 0.038,1 ± 0.02,1.02 ± 0.027
UniProt O75145 and related entries,1.01 ± 0.036,1.06 ± 0.05,1.015 ± 0.006,0.994 ± 0.038,0.941 ± 0.025,0.965 ± 0.015
UniProt O43933 and related entries,1.15 ± 0.1,1.1 ± 0.12,1.12 ± 0.067,1.1 ± 0.085,1.1 ± 0.055,1.1 ± 0.082
HEXIM1 (UniProt O94992),1.05 ± 0.044,1.14 ± 0.075,1.11 ± 0.042,1.1 ± 0.032,1.14 ± 0.014,1.19 ± 0.03
UniProt O75494 and related entries,1.04 ± 0.04,1.04 ± 0.013,1.04 ± 0.033,1.03 ± 0.071,1.05 ± 0.059,1.07 ± 0.095
WDR1 (UniProt O75083),0.974 ± 0.031,0.917 ± 0.059,0.946 ± 0.02,0.983 ± 0.044,0.994 ± 0.018,0.965 ± 0.017
UniProt O75475 and related entries,1.08 ± 0.028,1.21 ± 0.042,1.24 ± 0.056,1.34 ± 0.057,1.34 ± 0.024,1.37 ± 0.023
UniProt O60524 and related entries,1.07 ± 0.03,1.08 ± 0.018,1.11 ± 0.042,1.13 ± 0.022,1.15 ± 0.014,1.18 ± 0.044
NMT2 (UniProt O60551),1.01 ± 0.02,1.07 ± 0.047,1.07 ± 0.04,1.09 ± 0.043,1.14 ± 0.054,1.17 ± 0.064
TAF5L (UniProt O75529),0.995 ± 0.014,0.979 ± 0.02,0.996 ± 0.026,1.02 ± 0.038,1.01 ± 0.032,1.01 ± 0.07
GRAP2 (UniProt O75791),0.989 ± 0.027,0.899 ± 0.073,0.984 ± 0.027,0.942 ± 0.03,0.997 ± 0.013,0.944 ± 0.028
DGAT1 (UniProt O75907),0.923 ± 0.013,0.9417 ± 0.0028,0.959 ± 0.039,0.9755 ± 0.0015,0.983 ± 0.054,0.936 ± 0.062
ATG7 (UniProt O95352),0.997 ± 0.014,0.935 ± 0.1,0.974 ± 0.012,0.955 ± 0.042,0.954 ± 0.03,0.928 ± 0.012
CBR3 (UniProt O75828),1 ± 0.045,0.984 ± 0.022,0.98 ± 0.018,0.983 ± 0.026,0.994 ± 0.031,0.986 ± 0.025
MED26 (UniProt O95402),1.03 ± 0.012,1.08 ± 0.03,1.03 ± 0.021,1.04 ± 0.04,1.04 ± 0.06,1.06 ± 0.042
DNAJA2 (UniProt O60884),0.963 ± 0.035,0.966 ± 0.023,0.908 ± 0.032,0.904 ± 0.046,0.88 ± 0.04,0.895 ± 0.056
UniProt O94842 and related entries,1.08 ± 0.019,1.08 ± 0.048,1.1 ± 0.01,1.06 ± 0.045,1.05 ± 0.051,1.06 ± 0.039
RNASEH1 (UniProt O60930),1.03 ± 0.032,1.01 ± 0.023,0.997 ± 0.02,1.04 ± 0.051,1.09 ± 0.043,1.1 ± 0.014
UniProt O75865 and related entries,0.971 ± 0.03,0.906 ± 0.064,0.957 ± 0.051,0.994 ± 0.06,1.01 ± 0.048,0.979 ± 0.028
UGDH (UniProt O60701),0.985 ± 0.029,0.939 ± 0.059,0.997 ± 0.025,0.984 ± 0.032,0.981 ± 0.022,0.9808 ± 0.0012
